Assay results published in publication PMC5723018.
Results are given in words; binding and its absence hold for the method and conditions named. Binding seen in cells or lysates may run through a third protein. Some binding calls cover weakened binding; strength is not graded here. Each block holds one molecule with its values, some of them ahead of it.

By UniProt entry, the sequences of proteins in these tests, tags left out.
UniProt Q04206: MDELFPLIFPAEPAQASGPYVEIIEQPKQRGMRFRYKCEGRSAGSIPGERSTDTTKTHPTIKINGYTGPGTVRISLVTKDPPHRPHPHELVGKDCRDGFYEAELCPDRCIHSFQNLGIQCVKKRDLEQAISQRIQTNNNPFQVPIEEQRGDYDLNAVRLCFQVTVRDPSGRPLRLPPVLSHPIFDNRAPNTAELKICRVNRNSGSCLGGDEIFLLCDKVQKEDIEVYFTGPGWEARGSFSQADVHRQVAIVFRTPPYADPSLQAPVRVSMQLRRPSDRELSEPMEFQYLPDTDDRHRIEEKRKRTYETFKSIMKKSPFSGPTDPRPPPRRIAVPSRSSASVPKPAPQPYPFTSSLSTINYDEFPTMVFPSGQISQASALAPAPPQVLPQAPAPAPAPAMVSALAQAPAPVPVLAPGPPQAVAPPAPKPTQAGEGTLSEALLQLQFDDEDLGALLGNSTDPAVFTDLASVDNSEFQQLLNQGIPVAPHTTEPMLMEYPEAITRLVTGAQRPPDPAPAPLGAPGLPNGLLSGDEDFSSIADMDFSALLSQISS

Tests used:
[1] = target: T1, FK506 binding protein 11 (human (endogenous in EA.hy926)) (UniProt Q9NYL4); test: co-IP; endogenous proteins in whole cell lysates of EA.hy926 cells, control or treated with 1.0 x 10^-6 mol/L Ang II; 3 ug specific antibody, 2 h at 4°C, protein A/G agarose beads, washed with PBS; IP of FKBP11 and immunoblot of p-p65, and vice versa
T1 sequence: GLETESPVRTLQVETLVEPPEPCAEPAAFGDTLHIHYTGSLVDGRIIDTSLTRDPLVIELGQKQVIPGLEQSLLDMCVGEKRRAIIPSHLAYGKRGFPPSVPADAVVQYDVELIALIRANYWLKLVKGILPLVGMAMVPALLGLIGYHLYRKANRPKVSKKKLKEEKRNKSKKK

[2] = target: NF-kB p65 subunit, phosphorylated (human (endogenous in EA.hy926)) (UniProt Q04206); test: as above

binding [1]: binds
Molecule: NF-kB p65 subunit, phosphorylated (from UniProt Q04206 1-551)

binding [2]: binds
B1: FK506 binding protein 11 (protein, UniProt Q9NYL4 28-201)
chain: T1 sequence
